The record followed here is PubChem BioAssay AID1347423 (Functional Genomics Laboratory (NCATS/FGL), 2020).

Screen size: about 52,000 sequences; about 210 (0.4%) were called active.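 Rule for the calls: active = gene whose silencing raises cell survival under the drug, median off-target-corrected z-score across its silencing RNAs 2 or more; inactive = the rest.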 Some of the results follow.

This experiment is described as follows: Resistance to Poly (ADP-Ribose) Polymerase inhibitor: Gene Identification via Genome-wide siRNA Screen. The settings on record: mouse BRCA2 R2336H ES cells, olaparib, CellTiter-Glo viability; stronger effect = higher value. The method, boiled down: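 Mouse BRCA2 R2336H ES cells were reverse-transfected with siRNA (20 nM final), treated at 48 h with 500 nM olaparib, and read by CellTiter-Glo after 72 h. Scores: MAD-based z per siRNA, median per gene, seed off-target correction.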
For the sequence CCACUGUGUGACAUUAAAGTT against Metap2, the z-score was inactive: -0.389. For GCACACAUGUAGUCUUAUATT against Harsl, the z-score was inactive: -0.274. Regarding GGACUUUGUAUAUUGGUUUTT against Ets2, the z-score was inactive: -0.869.

With CCUUGUACAACAAUGGUGCTT against Git2, the z-score was inactive: 0.014. With “GCAAAUCAUUUAGGACCCATT against 2600011E07Rik” the figure was inactive: -1.45. With GCAGAUUUACCCUCUAUAATT against Peli2 the figure was inactive: 0.331; with GGUGUCAGAACACAUCGCATT against Sepp1, inactive: 0.294; with “GGAAAAGUUCUUAAUGGAGTT against 5730453I16Rik”, inactive: 1.08.

With GUUUGAGGACUUGGAGGUGTT against Znrf4, the z-score was inactive: 0.882. Then “GCUGUUACAGACCUGUUUCTT against 1500019G21Rik”, with inactive: 1.54; and GGAAUACGAAGAGAUUAUATT against Zw10, with inactive: -0.165.

Turning to GAAGAUCCACUUCAUCGCCTT against Psmb10, the z-score is inactive: -1.82.

As to “GGUGCUGAUGGGAGAUAGUTT against 1700010H22Rik”, the z-score was inactive: -0.146. With CCACUUAAAAUUCAUUCCUTT against Arl6ip1 the figure was inactive: 1.22; with GGACAAUGCUGUGACCUCUTT against Amn, inactive: -0.106. With GGCCACUCUUCUAGUGCAUTT against BC037095 the figure was inactive: -0.471; with UUAAGCCGCUUUUGAAGCUTT against Olfr1200, inactive: -1.52. In the case of “GGCUGAUAAGGCUAAGUACTT against 5430432M24Rik”, the z-score is inactive: -0.887. With GUUUUGGAACUUGUGAUGATT against Expi the figure was inactive: 1.31.

Consider CCCUCCUCUGUUGGAUCUUTT against Olfr912, for which the z-score is inactive: -2.44. On to GGAUCAUGCAGACAUGCUGTT against Ggcx, for which the z-score was inactive: -0.92. For the sequence GCCUUAAGUGGAUUUAGGATT against Hist1h2ae, the z-score was inactive: 1.22. Then GGAACUCUUUCUUCCAUGUTT against Olfr1495, with inactive: -0.54; and CCCGUCCUGCUAAAUGGUGTT against Usp42, with inactive: -0.738; and “GCAAUGGUUCAGUAUGUACTT against 5730494M16Rik”, with inactive: -0.902. With GCUUUGGUGCACUUGCUUUTT against Akr1c13 the figure was inactive: -0.103.

Consider GGAUGAUGGUGUCUACUCUTT against Fibcd1, for which the z-score was inactive: -1.85. Then GGAACAUCUGCAUCUGGAUTT against AL024210, with inactive: 1.37; and GGGUAAUGCUGACUACAGGTT against MGC65590, with inactive: -1.89; and GGCAGAGAUGCUUUAUAAATT against Harsl, with inactive: -0.48. Then “GGAUAUCCGCCUCACUCUUTT against 2010204I15Rik”, with inactive: -0.045. As for “GGAUAUCUGUUGCAUGGCATT against 5730444A13Rik”, the z-score was inactive: -2.31. With GGUUGGAGUUGAUUUUAAUTT against Zmym1 the figure was inactive: 0.101; with “GCAGAUGACCAUUGGUUAATT against 2610301B20Rik”, inactive: -0.36.

On to GCCCUUUGGAUAACAGUGATT against Sufu, for which the z-score was inactive: -0.968. With “CGAUAUCUCGAAAAUUUCATT against 1500002I11Rik” the figure was inactive: 0.325; with GCUUGUGAAUUAAUGAACATT against Farslb, inactive: -2.89; with “CGAAGUUAUGCCCAGAAUGTT against 2010321M09Rik”, inactive: 0.0597. Then GCAACUCAAUGACCUGAAATT against Ifnab, with inactive: -2.91; and GGGUCUCAAAAGAGCAGGUTT against Neurl, with inactive: 0.913. On to GCGAAUAAACCACUUGUUGTT against Pum2, for which the z-score is inactive: 0.225. In the case of GGAAUUUCAAAGAGACAAATT against Cyfip1, the z-score is inactive: -0.82. As for GGGUCCAGUUUAAGACAUATT against Lypla2, the z-score is inactive: -1.59.

Turning to GCGUGAUCAUUGAUGUGGATT against Slc5a7, the z-score was inactive: -0.93.

As for GGAGAUGAAGCUCUGGAUATT against Spock2, the z-score is inactive: -0.176. Consider GGAAAUGUUUACCUGCCAUTT against Zfp512, for which the z-score was inactive: -0.832. With GGACGAAAAGAAGUGUUUCTT against Lamb2 the figure was inactive: 1.41.

As to GGAACUCUGGAAUAAUCUGTT against Siat7b, the z-score was inactive: -0.907.

On to GCCCGGUCCUUUACUACAUTT against Sdk1, for which the z-score was inactive: -0.266. With “CGUACAGAGACAUCUUGAUTT against 5133401N09Rik” the figure was inactive: 0.587. Regarding “GGAACCAGGUAGCAGAUCUTT against D19Ertd144e”, the z-score is inactive: -3.39. With GGUAAAAAGUACAAGUGGGTT against Slc17a5 the figure was inactive: 1.76; with CCAUGCGAAAGAGUAUAAATT against BC060632, inactive: -0.343; with “CCAAUAGAGAAACUUUCUCTT against 1110008L20Rik”, inactive: -0.39. Then GGCUGAGAAGACUUUCAGUTT against Trappc4, with inactive: -0.332. Turning to CGCCAGAAAGCUUCUAUGATT against Gucy2c, the z-score was inactive: 1.84. Then GCUAUCGGACUGUGUGCUGTT against Rpl41, with inactive: -1.14; and GGAGAAUGUGGCUUCCUGATT against Clrf, with inactive: -0.333; and CCAUAUGUGCUCACCUUUATT against Marveld2, with inactive: 0.264. Then AUCGUGUUUGCUGUAUUUGTT against Olfr1258, with inactive: -0.0864. Then GGUCCCAGAAAGUAGGCAUTT against Prss22, with inactive: 0.579; and GGAACUUAUCCUUCUUAGATT against Olfr713, with inactive: 0.867. For the sequence GGUAAAUGAGAUCAACUUCTT against Dvl3, the z-score was inactive: 1.17. Take GGAUACAGGAGGAAGAAAATT against AW319487: the z-score is inactive: -0.203. CCUGCGCUUCUGACUAUCUTT against Dcbld1: the z-score is inactive: -0.234. With “GGGCAAGAAGGUAGACAUUTT against 0610010D20Rik” the figure was inactive: -1.55; with GGCUUUAAGGCUAGCAGUUTT against Pex11a, inactive: 1.24; with “GGAGACUUAUUGAGCAAGUTT against E430004F17Rik”, inactive: 0.366. With GGUCGUGUUCGAGCAAACCTT against Tpi1 the figure was inactive: 1.03; with CGUGUAGAUUACAAGAAUGTT against Mrps18c, inactive: -0.303. Then “GGCCUGAACACACUGACAATT against 1200008A14Rik”, with inactive: -1.14; and GGUAGUCUCUGCCACCAAUTT against Mrps11, with inactive: -2.5; and CGUACCAUGGUCAAGACGUTT against Tpcn1, with inactive: 1.09. As to GCACAGUGGUAAUUCUUUATT against Snapc3, the z-score is inactive: 1.41. Then “GGAAGACCUGAACAAACUGTT against 1500031L02Rik”, with inactive: -0.242; and GGUGGAAGUGAAGAAGCGATT against AV216087, with inactive: -1.03; and GGUAUGAUGCACUUUCUGATT against Zhx1, with inactive: 0.455. Then GCCCAUUGACGUAAUUCUCTT against V1ri3, with inactive: -0.182. With GGAACAUACUGCUAAUAUGTT against C6.1A the figure was inactive: -0.509; with “GUUUUCAGAGCUCUGCAUUTT against 2610510H03Rik”, inactive: 0.0133; with GGAGAGUAUCUGAAGUUUCTT against Jak2, inactive: 1.31. “GCCGACAAGAGAUACAUGATT against 1600013P15Rik”: the z-score was inactive: -0.0259.

On to GGUGGACUCUGACAUAACATT against Iigp1, for which the z-score was inactive: 0.698. For the sequence GGAGGUAGAGGAGUUGGAGTT against Zyx, the z-score is inactive: -1.83.

As to GGCUCACAGUUACCAUCUCTT against Lipe, the z-score is inactive: 0.275. For the sequence GCAUAUUGGAACUACUGGGTT against Olfr986, the z-score was inactive: -0.929. With GCCACAGGAUGCUAGCAAATT against Bex2 the figure was inactive: -0.617; with CGUGGUGAUUAUGCUUCUATT against Rab37, inactive: 0.706. Consider “GCCAUAGGAGUGAUUGGAUTT against E130018O15Rik”, for which the z-score is inactive: -0.35.

In the case of GGCGACAUGAAAGAAGGCATT against Prss18, the z-score is inactive: -1.27. Then GCCAUAUGAUAAUAUAGAGTT against AI595338, with inactive: 0.747; and GCUCAUCAAGCUGUACCUATT against Eif2b1, with inactive: -0.0934.

Take “CUUAGCUACUUCAAGGUCATT against C630041L24Rik”: the z-score is inactive: 0.262. With GGAUGCCUAUCACAAGCAGTT against Pacsin1 the figure was inactive: 1.33. Then GCCACACGUGUGCAAAGAUTT against Zfp524, with inactive: 0.61; and CCAUCAUGCCCUGUUUGCATT against Cdc42ep3, with inactive: 0.371. With CCAUAUGGCUUAUCUUAUUTT against Adam5 the figure was inactive: -0.215; with “CCUAUGAACCCUAGGGUACTT against A230058J24Rik”, inactive: -0.043. For GGUGGUGAUACGUACAGAATT against A2m, the z-score was inactive: 1.18. With GGCAUCUUCGUCUUCAUGCTT against Rnf122 the figure was inactive: -1.75. Then GCUCUAAGUUUCCUCAUGGTT against Pkig, with inactive: -0.952; and GGUCCUAUUUCGGAGCUUUTT against Tnfsf14, with inactive: -1.18. With “GGAGGGUUUGCUUGAUGUUTT against 6430598A04Rik” the figure was inactive: -1.33.
